{
  "sequences": {"note": "Protein sequences, listed by entry. Tags and fused reporters are not part of them. Residues count along the entry.", "UniProt P08581, residues 25-1390": "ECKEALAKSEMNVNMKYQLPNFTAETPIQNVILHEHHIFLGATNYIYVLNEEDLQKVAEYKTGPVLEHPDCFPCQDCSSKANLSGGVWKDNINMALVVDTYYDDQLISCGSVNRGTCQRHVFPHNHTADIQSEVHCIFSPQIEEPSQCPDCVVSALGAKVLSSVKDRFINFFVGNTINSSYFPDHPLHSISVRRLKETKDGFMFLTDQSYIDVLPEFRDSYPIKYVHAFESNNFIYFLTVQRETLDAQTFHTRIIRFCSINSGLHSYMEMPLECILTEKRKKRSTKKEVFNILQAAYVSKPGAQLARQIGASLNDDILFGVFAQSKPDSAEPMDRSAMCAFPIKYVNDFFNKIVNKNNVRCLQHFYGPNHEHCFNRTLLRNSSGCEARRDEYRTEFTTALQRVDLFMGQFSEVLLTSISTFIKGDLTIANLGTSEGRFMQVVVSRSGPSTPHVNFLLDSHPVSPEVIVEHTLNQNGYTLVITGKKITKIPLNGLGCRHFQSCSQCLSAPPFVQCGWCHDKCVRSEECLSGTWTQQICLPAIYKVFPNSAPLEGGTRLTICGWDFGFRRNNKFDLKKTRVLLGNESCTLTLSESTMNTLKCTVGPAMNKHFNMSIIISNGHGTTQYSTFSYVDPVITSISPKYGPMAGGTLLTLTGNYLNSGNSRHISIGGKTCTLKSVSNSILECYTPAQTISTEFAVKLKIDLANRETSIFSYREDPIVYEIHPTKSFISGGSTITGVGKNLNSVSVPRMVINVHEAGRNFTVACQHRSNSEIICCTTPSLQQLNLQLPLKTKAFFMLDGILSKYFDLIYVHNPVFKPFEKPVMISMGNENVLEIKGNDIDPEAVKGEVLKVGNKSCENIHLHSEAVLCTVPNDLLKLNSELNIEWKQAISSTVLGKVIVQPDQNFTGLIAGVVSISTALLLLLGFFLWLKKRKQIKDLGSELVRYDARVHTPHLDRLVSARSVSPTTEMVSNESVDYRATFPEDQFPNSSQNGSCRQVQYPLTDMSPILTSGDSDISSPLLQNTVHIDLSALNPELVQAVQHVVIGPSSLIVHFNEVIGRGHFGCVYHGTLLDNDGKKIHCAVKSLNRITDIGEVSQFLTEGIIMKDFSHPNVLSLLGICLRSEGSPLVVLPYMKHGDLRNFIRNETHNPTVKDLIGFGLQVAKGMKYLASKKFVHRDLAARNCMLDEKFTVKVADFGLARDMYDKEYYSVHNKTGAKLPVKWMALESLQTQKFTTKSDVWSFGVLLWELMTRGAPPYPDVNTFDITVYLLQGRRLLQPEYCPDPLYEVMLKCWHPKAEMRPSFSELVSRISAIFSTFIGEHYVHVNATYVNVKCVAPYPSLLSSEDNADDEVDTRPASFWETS"},
  "source": "paper PMC12371199",
  "about": "“Identification of c‐Met on Tumor Cells as a Novel Receptor for B7‐H3 Entails Implications for Cancer Cell Stemness and Targeted Therapy” (MedComm, 2025)",
  "molecular_target": "T1, HA‐strep tagged B7‐H3 (human) (UniProt Q5ZPR3)",
  "T1 sequence": "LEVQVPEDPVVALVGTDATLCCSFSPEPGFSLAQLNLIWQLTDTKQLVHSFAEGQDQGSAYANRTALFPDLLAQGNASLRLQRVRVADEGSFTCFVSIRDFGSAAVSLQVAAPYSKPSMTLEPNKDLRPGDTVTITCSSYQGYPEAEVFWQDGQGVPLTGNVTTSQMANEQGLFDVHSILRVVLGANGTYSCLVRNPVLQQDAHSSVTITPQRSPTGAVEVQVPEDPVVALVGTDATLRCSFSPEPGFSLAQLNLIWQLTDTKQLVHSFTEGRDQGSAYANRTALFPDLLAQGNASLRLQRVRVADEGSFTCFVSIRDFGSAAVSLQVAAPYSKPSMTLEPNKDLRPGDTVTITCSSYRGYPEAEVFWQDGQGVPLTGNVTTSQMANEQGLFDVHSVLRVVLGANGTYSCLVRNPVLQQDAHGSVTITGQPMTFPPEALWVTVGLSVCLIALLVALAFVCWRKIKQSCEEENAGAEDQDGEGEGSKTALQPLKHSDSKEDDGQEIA",
  "assay": "affinity purification with mass spectrometry; TAP‐tag system overexpressing HA‐strep tagged B7‐H3 in cancer cells, followed by mass spectrometry",
  "note": "These are yes or no findings as the source states them, for the method shown. In cells and extracts the contact can be indirect. A yes stands for co-enrichment or nearness to the bait. Other partners may have been found. Where a sequence is shown, tags or fusion partners need not be part of it.",
  "data": [
    {"substance": "c‐Met (endogenous, in tumor cell lines) (from UniProt P08581 25-1390) (receptor)", "values": [
      {"measurement": "binding", "result": "binds"}
    ]}
  ]
}
